Measured values reported in the supplement of paper PMC10849652.
The list shows a part of the results.

Sequences of proteins named here, by UniProt entry; tags and fusion partners are left off. A change or cut given only in a name is not applied to a line headed by its entry.
UniProt P19634, whole entry, looked up: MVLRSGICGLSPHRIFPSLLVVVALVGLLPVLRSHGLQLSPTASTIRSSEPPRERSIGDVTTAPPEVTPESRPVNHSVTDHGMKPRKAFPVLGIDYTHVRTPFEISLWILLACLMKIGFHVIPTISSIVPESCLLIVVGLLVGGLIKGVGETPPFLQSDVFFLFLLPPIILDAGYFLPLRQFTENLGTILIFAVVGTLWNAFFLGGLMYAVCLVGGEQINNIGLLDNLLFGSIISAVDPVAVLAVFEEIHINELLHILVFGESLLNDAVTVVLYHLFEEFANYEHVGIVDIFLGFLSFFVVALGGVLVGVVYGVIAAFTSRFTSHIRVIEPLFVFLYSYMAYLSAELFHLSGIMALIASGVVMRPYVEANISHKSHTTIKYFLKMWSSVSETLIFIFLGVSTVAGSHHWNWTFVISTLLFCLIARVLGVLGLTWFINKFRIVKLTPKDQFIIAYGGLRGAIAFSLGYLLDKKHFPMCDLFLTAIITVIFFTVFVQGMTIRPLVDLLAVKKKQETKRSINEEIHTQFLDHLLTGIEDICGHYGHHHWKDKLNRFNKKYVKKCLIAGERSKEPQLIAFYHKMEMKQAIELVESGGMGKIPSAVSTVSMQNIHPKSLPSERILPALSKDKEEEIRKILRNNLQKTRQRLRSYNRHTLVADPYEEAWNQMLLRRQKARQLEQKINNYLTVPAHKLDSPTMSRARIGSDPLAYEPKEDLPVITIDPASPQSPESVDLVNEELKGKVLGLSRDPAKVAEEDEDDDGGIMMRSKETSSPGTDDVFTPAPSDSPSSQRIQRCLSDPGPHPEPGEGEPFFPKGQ
UniProt P57768: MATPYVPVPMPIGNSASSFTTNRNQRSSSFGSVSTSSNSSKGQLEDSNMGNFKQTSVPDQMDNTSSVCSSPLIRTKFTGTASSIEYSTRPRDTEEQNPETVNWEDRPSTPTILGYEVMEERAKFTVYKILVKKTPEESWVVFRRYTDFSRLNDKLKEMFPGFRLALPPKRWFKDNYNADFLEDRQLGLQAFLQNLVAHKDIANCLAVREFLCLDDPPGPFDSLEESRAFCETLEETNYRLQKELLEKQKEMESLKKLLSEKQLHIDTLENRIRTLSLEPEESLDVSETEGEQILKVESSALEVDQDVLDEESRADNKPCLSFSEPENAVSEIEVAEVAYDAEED
UniProt Q12824, whole entry, looked up: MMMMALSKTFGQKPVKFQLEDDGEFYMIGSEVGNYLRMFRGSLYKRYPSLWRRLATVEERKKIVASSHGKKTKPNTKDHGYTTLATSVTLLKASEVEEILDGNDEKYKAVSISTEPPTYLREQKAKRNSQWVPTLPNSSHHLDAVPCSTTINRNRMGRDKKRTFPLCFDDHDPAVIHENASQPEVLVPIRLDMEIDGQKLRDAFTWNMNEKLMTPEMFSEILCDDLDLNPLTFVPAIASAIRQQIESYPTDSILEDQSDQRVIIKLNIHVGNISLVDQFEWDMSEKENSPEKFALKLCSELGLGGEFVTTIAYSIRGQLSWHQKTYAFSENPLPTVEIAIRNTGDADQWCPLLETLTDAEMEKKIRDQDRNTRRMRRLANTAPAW
UniProt Q99717: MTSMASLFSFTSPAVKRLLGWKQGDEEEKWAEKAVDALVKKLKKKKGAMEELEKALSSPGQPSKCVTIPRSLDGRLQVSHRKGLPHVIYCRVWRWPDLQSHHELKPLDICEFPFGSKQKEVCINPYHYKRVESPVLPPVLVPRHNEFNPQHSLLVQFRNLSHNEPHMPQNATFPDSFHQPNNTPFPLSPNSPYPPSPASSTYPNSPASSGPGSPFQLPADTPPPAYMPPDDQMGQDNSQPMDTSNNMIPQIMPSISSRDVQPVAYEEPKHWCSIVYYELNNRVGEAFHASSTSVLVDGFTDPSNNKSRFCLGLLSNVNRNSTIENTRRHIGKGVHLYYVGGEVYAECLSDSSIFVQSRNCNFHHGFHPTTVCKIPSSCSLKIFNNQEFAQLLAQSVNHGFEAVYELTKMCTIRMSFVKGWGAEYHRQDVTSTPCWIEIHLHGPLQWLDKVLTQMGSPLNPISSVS
UniProt Q9H4I9: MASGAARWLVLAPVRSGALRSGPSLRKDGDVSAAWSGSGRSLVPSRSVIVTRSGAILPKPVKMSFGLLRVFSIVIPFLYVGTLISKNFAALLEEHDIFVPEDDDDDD
UniProt Q92925, whole entry, looked up: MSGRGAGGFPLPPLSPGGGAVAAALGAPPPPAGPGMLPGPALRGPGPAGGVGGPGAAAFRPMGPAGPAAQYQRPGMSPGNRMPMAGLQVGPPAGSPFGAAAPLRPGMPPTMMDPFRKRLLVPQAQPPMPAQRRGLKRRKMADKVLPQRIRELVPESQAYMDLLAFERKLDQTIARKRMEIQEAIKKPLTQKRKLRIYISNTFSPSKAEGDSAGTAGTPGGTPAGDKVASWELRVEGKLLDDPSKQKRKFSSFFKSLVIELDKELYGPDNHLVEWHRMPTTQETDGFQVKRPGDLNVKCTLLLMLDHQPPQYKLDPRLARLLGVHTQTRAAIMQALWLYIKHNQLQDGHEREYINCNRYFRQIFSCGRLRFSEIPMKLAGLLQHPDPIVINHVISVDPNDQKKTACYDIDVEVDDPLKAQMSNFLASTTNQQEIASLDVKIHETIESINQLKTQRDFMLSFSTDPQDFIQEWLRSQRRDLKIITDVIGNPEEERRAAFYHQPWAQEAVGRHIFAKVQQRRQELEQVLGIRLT
UniProt Q9NXE4: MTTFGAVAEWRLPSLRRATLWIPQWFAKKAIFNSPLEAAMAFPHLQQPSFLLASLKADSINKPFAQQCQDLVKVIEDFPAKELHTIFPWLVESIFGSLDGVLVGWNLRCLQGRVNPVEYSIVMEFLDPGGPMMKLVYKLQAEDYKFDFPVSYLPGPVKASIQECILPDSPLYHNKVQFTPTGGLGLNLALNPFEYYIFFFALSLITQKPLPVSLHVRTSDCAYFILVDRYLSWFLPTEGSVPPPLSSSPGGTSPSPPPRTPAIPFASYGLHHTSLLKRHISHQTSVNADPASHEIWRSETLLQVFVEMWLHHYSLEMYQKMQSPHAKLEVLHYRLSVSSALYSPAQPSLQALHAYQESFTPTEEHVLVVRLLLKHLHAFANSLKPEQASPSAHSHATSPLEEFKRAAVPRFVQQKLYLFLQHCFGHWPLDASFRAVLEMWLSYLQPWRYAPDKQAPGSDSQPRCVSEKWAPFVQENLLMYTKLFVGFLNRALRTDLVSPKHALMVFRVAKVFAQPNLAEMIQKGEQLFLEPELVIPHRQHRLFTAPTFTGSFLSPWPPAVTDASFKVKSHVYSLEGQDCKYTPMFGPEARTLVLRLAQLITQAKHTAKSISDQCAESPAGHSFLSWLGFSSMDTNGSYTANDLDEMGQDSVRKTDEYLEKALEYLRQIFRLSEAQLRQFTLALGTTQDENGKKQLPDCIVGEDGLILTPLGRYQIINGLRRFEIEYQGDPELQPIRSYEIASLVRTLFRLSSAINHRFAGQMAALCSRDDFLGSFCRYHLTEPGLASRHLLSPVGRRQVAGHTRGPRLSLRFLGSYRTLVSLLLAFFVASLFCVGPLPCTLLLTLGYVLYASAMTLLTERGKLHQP
UniProt Q92540: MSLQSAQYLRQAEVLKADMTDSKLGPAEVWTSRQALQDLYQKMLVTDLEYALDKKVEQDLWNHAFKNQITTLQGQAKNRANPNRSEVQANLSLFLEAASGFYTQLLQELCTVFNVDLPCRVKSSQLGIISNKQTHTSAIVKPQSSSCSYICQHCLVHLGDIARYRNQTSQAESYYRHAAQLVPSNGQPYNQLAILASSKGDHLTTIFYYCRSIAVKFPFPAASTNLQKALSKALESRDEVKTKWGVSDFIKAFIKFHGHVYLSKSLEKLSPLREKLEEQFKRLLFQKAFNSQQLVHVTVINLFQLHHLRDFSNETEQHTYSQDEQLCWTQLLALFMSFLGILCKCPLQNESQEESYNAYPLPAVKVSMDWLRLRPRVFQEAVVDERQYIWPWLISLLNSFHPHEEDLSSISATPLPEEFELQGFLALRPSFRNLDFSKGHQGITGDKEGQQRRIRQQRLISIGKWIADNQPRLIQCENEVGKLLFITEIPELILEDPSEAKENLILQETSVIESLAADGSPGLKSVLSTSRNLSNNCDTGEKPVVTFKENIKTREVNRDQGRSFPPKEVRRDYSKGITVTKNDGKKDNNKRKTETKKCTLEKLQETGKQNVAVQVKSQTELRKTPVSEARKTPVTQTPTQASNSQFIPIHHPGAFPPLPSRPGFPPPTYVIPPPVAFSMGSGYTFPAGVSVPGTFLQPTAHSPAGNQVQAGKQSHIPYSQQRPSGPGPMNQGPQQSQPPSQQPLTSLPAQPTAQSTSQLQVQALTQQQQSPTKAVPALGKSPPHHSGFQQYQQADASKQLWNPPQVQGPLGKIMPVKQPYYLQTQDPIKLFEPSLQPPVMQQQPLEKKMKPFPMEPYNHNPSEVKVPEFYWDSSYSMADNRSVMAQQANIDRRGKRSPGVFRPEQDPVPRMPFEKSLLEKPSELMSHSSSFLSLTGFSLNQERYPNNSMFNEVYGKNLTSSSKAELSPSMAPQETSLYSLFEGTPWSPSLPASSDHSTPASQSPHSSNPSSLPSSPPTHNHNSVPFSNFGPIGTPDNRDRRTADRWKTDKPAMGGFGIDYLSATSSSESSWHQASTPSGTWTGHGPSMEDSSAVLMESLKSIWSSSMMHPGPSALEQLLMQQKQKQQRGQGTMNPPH
UniProt Q7Z3B0: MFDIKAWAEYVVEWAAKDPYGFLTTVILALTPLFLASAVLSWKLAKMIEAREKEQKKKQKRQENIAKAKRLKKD
UniProt Q9BT81: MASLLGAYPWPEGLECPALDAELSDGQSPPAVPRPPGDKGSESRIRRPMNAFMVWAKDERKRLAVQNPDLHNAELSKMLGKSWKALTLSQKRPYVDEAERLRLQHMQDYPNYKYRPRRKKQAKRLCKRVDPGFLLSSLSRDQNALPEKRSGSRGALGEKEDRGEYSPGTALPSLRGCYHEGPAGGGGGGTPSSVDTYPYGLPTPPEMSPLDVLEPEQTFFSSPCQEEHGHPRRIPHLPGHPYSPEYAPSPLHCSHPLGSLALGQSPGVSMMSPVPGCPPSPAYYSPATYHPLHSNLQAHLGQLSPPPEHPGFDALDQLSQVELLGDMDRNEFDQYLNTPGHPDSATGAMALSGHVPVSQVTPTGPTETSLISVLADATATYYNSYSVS
UniProt Q8WVI0: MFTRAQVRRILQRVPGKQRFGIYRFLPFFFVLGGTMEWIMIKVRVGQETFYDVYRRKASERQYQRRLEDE
UniProt Q96RF0: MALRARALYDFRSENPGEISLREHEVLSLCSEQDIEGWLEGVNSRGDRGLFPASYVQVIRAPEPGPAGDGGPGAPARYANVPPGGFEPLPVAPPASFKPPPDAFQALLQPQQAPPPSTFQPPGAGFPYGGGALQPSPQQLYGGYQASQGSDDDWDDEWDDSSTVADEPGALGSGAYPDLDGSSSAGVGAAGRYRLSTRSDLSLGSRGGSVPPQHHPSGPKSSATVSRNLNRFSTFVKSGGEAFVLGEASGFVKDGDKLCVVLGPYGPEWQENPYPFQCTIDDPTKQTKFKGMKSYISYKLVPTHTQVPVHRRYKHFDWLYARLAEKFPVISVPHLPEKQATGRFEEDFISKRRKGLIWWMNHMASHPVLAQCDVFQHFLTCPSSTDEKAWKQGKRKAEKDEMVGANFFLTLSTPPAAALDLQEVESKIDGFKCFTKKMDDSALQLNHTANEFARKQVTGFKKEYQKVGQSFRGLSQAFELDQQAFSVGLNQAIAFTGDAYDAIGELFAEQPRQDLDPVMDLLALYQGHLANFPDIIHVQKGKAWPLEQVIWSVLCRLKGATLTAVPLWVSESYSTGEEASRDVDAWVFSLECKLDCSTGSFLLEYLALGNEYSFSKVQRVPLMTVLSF
UniProt Q9NRH2: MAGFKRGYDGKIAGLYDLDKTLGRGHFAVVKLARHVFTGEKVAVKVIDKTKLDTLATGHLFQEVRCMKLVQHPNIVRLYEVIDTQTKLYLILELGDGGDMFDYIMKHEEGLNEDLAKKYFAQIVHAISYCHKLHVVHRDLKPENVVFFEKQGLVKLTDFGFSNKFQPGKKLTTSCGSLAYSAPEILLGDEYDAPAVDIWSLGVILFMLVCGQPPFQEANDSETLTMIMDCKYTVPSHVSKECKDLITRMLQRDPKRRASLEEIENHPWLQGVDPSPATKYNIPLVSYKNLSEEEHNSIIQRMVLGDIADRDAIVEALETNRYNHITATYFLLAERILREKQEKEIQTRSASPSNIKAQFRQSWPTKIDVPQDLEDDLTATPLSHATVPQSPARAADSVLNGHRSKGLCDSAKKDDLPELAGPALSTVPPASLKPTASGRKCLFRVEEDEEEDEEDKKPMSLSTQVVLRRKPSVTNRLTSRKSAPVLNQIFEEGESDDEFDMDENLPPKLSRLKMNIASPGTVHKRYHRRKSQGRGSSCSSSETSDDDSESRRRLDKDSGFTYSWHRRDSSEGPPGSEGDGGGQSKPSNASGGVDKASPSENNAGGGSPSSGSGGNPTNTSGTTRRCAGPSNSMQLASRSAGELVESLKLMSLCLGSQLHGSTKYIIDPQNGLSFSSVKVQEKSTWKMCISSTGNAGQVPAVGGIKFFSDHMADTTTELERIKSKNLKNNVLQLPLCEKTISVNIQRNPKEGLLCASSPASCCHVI

What was measured:
Assay in all cases: log2 fold change, soluble protein after heating vs DMSO (PISA); higher = thermal stabilisation; K562 cells, 10 uM, 30 min; active = over 0.2 and 3.5 SD of the protein, either way, in both replicates (recomputed)
[1] = compound: COC1=CC=C(C=C1)CN2C=CC3=C2C=C(C=C3)C(=O)NO
Summary of the method: (§1)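 K562 cells at 2×10^6 cells/mL were treated with 10 μM compound for 30 min. Aliquots were heated for 3 min across 48°C-58°C, pooled, and extracted in PBS with 0.5% NP-40 at 4°C; soluble protein was the supernatant after 21,000xg for 90 min. Soluble protein was quantified by TMTpro 16plex LC-MS/MS with channel sums equalised, and reported as log2 fold change in thermal stability against DMSO controls, with values from duplicates.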

zotarolimus = compound: CO[C@H]1C[C@@H]2CC[C@@H](C)[C@@](O)(O2)C(=O)C(=O)N2CCCC[C@H]2C(=O)O[C@H]([C@H](C)C[C@@H]2CC[C@H](n3cnnn3)[C@H](OC)C2)CC(=O)[C@H](C)/C=C(\C)[C@@H](O)[C@@H](OC)C(=O)[C@H](C)C[C@H](C)/C=C/C=C/C=C/1C [zotarolimus]
Summary of the method: as §1

idasanutlin = compound: COc1cc(C(=O)O)ccc1NC(=O)[C@@H]1N[C@@H](CC(C)(C)C)[C@](C#N)(c2ccc(Cl)cc2F)[C@H]1c1cccc(Cl)c1F [idasanutlin]
Summary of the method: as §1

pictilisib = compound: CS(=O)(=O)N1CCN(Cc2cc3nc(-c4cccc5[nH]ncc45)nc(N4CCOCC4)c3s2)CC1 [pictilisib]
Summary of the method: as §1

crizotinib = compound: C[C@@H](Oc1cc(-c2cnn(C3CCNCC3)c2)cnc1N)c1c(Cl)ccc(F)c1Cl [crizotinib]
Summary of the method: as §1

[2] = compound: C[C@@H]1COCCN1C2=NC(=NC(=C2)C3(CC3)S(=O)(=O)C)C4=C5C=CNC5=CC=C4
Summary of the method: as §1

[3] = compound: C[C@H](C1=CC=C(C=C1)C(=O)NC2=C3C=CNC3=NC=C2)N
Summary of the method: as §1

duvelisib = compound: C[C@H](Nc1ncnc2nc[nH]c12)c1cc2cccc(Cl)c2c(=O)n1-c1ccccc1 [duvelisib]
Summary of the method: as §1

gandotinib = compound: Cc1cc(Nc2cc(CN3CCOCC3)c3nc(C)c(Cc4ccc(Cl)cc4F)n3n2)n[nH]1 [gandotinib]
Summary of the method: as §1

tozasertib = compound: Cc1cc(Nc2cc(N3CCN(C)CC3)nc(Sc3ccc(NC(=O)C4CC4)cc3)n2)n[nH]1 [tozasertib]
Summary of the method: as §1

[4] = compound: Cc1cc(SCc2sc(-c3ccc(C(F)(F)F)cc3)nc2C)ccc1OCC(=O)O
Summary of the method: as §1

doramapimod = compound: Cc1ccc(-n2nc(C(C)(C)C)cc2NC(=O)Nc2ccc(OCCN3CCOCC3)c3ccccc23)cc1 [doramapimod]
Summary of the method: as §1

ispinesib = compound: Cc1ccc(C(=O)N(CCCN)[C@@H](c2nc3cc(Cl)ccc3c(=O)n2Cc2ccccc2)C(C)C)cc1 [ispinesib]
Summary of the method: as §1

filanesib = compound: CON(C)C(=O)N1N=C(c2cc(F)ccc2F)S[C@@]1(CCCN)c1ccccc1 [filanesib]
Summary of the method: as §1

alisertib = compound: COc1cc(Nc2ncc3c(n2)-c2ccc(Cl)cc2C(c2c(F)cccc2OC)=NC3)ccc1C(=O)O [alisertib]
Summary of the method: as §1

[5] = compound: COc1cc2nc(-c3cc(F)ccc3O)nc(N[C@@H]3CNC[C@H]3C(C)(C)O)c2cc1OC
Summary of the method: as §1

gefitinib = compound: COc1cc2ncnc(Nc3ccc(F)c(Cl)c3)c2cc1OCCCN1CCOCC1 [gefitinib]
Summary of the method: as §1

[6] = compound: COc1cccc2cc(-c3nc([C@H]4CC[C@H](C(=O)O)CC4)n4ncnc(N)c34)[nH]c12
Summary of the method: as §1

lapatinib = compound: CS(=O)(=O)CCNCc1ccc(-c2ccc3ncnc(Nc4ccc(OCc5cccc(F)c5)c(Cl)c4)c3c2)o1 [lapatinib]
Summary of the method: as §1

[7] = compound: CS(=O)(=O)c1ccc(-c2cnc(N)c(C(=O)Nc3ccccc3)n2)cc1
Summary of the method: as §1

Measured: log2 fold change

SNX27 (UniProt Q96L92)
inactive: [1] 0.044 | zotarolimus 0.205 | idasanutlin 0.13 | pictilisib 0.023 | crizotinib -0.091 | [2] 0 | [3] 0.434 | duvelisib -0.117 | gandotinib -0.182 | tozasertib 0.033 | [4] 0.293 | doramapimod 0.147 | ispinesib -0.199

SLC9A1 (UniProt P19634)
inactive: [1] -0.03 | filanesib 0.031 | idasanutlin -0.037 | alisertib 0.066 | [5] 0.061 | gefitinib -0.001 | [6] 0.157 | lapatinib 0.03 | pictilisib -0.004 | [7] -0.005 | crizotinib -0.102 | [2] -0.004 | duvelisib 0.038 | gandotinib 0.068 | tozasertib 0.021 | [4] -0.002 | doramapimod 0.068

SNX16 (UniProt P57768)
inactive: [1] -0.036 | filanesib -0.033 | zotarolimus -0.018 | alisertib -0.123 | [5] 0.006 | gefitinib -0.1 | [6] -0.013 | lapatinib 0.035 | pictilisib -0.05 | [7] 0.037 | crizotinib 0.069 | [2] 0.097 | [3] 0.227 | duvelisib 0.05 | gandotinib -0.182 | [4] -0.009 | doramapimod -0.125 | ispinesib -0.15

Taken from the entries so far (2 entries):
SNX27 (UniProt Q96L92)
inactive: [1] 0.044 | zotarolimus 0.205 | idasanutlin 0.13 | pictilisib 0.023 | crizotinib -0.091 | [2] 0 | [3] 0.434 | duvelisib -0.117 | gandotinib -0.182 | tozasertib 0.033 | [4] 0.293 | doramapimod 0.147 | ispinesib -0.199

SLC9A1 (UniProt P19634)
inactive: [1] -0.03 | filanesib 0.031 | idasanutlin -0.037 | alisertib 0.066 | [5] 0.061 | gefitinib -0.001 | [6] 0.157 | lapatinib 0.03 | pictilisib -0.004 | [7] -0.005 | crizotinib -0.102 | [2] -0.004 | duvelisib 0.038 | gandotinib 0.068 | tozasertib 0.021 | [4] -0.002 | doramapimod 0.068

(list continues)

SPAG9 isoform 4 (UniProt O60271)
inactive: [1] -0.02 | filanesib 0.078 | zotarolimus -0.076 | idasanutlin -0.006 | alisertib 0.062 | gefitinib -0.007 | [6] -0.112 | [7] 0.144 | crizotinib -0.061 | [3] 0.123 | doramapimod 0.042 | ispinesib -0.128

SMARCB1 (UniProt Q12824)
inactive: [1] -0.116 | filanesib 0.026 | zotarolimus 0.136 | pictilisib 0.424 | [7] 0.024 | crizotinib -0.128 | [3] 0.284 | gandotinib 0.49 | [4] 0.097 | doramapimod 0.049

SMAD5 (UniProt Q99717)
inactive: [1] 0.022 | filanesib 0.015 | zotarolimus -0.035 | idasanutlin 0.065 | alisertib -0.128 | gefitinib -0.001 | [6] -0.216 | pictilisib -0.122 | [7] -0.052 | crizotinib -0.034 | [2] -0.039 | [3] 0.056 | duvelisib -0.028 | gandotinib -0.113 | tozasertib -0.031 | [4] 0.126 | doramapimod -0.094 | ispinesib 0.147

SP2 (UniProt Q02086)
inactive: [1] -0.319 | filanesib 0.012 | idasanutlin 0.277 | [7] -0.14 | crizotinib 0.083 | [4] 0.125 | doramapimod -0.06

SNRPD2 (UniProt K7EJB5)
inactive: [1] -0.099 | zotarolimus -0.258 | idasanutlin 0.035 | alisertib -0.077 | [5] 0.159 | gefitinib 0.015 | [6] 0.039 | lapatinib -0.134 | pictilisib 0.244 | crizotinib 0 | [3] 0.191 | duvelisib 0.059 | gandotinib -0.09 | tozasertib -0.102 | [4] -0.117 | doramapimod 0.081 | ispinesib -0.348

SMDT1 (UniProt Q9H4I9)
active: filanesib -0.39
inactive: [1] -0.053 | zotarolimus -0.014 | idasanutlin -0.087 | alisertib -0.058 | [6] 0.014 | pictilisib 0.095 | [7] 0.144 | crizotinib 0.042 | [2] 0.017 | [3] -0.035 | gandotinib -0.23 | [4] 0 | doramapimod 0.054

SMARCA4 (UniProt P51532)
inactive: [1] -0.101 | filanesib 0.124 | zotarolimus 0.09 | idasanutlin 0.15 | alisertib -0.086 | [5] 0.273 | [6] -0.038 | pictilisib 0.025 | [7] 0.216 | crizotinib 0.01 | [2] 0.036 | [3] 0.188 | gandotinib 0.042 | [4] -0.064 | doramapimod 0.085 | ispinesib -0.248
active: lapatinib -0.544

SNX17 (UniProt Q15036)
inactive: [1] 0.184 | filanesib 0.032 | zotarolimus -0.028 | idasanutlin 0.276 | [5] 0.122 | gefitinib -0.017 | lapatinib -0.116 | pictilisib 0.147 | [7] -0.013 | crizotinib -0.063 | [2] -0.055 | [3] 0.086 | duvelisib 0.018 | gandotinib -0.091 | tozasertib -0.272 | [4] 0.044 | doramapimod -0.043 | ispinesib -0.108

SMARCD2 (UniProt Q92925)
inactive: [1] 0.16 | zotarolimus 0.064 | idasanutlin 0.263 | alisertib -0.09 | [5] -0.072 | [6] 0.143 | lapatinib 0.16 | pictilisib 0.052 | crizotinib 0.02 | [3] 0.157 | gandotinib -0.088 | tozasertib 0.29 | doramapimod 0.048

SMPD4 isoform 2 (UniProt Q9NXE4)
inactive: [1] -0.011 | zotarolimus 0.043 | idasanutlin -0.16 | alisertib -0.117 | [5] -0.308 | [6] 0.003 | lapatinib 0.131 | pictilisib -0.108 | crizotinib -0.21 | [3] -0.061 | gandotinib -0.263 | [4] 0.09 | doramapimod 0.027

SMG7 isoform 4 (UniProt Q92540)
inactive: [1] -0.025 | filanesib 0.06 | zotarolimus 0.169 | [5] 0.242 | gefitinib -0.166 | lapatinib -0.077 | pictilisib -0.019 | [7] -0.073 | crizotinib -0.18 | [2] 0.148 | [3] 0.145 | duvelisib -0.024 | gandotinib -0.144 | tozasertib -0.038 | [4] 0.061 | doramapimod 0.199 | ispinesib -0.217

SMPD1 (UniProt P17405)
inactive: [1] 0.129 | filanesib -0.127 | idasanutlin -0.089 | alisertib 0.081 | [5] -0.217 | [6] 0.209 | lapatinib -0.058 | pictilisib -0.061 | [7] -0.156 | crizotinib -0.365 | duvelisib 0.077 | gandotinib 0.032 | [4] 0.054 | doramapimod 0.216 | ispinesib -0.055

SMIM15 (UniProt Q7Z3B0)
inactive: [1] -0.284 | filanesib -0.289 | zotarolimus 0.033 | idasanutlin -0.175 | alisertib 0.048 | gefitinib -0.004 | [6] -0.019 | pictilisib -0.181 | [7] 0 | crizotinib 0.023 | [2] 0.172 | [3] -0.247 | duvelisib -0.084 | gandotinib 0.145 | tozasertib -0.027 | [4] 0.034 | doramapimod 0.114

SNX2 isoform 2 (UniProt O60749)
inactive: [1] 0.258 | filanesib -0.234 | zotarolimus 0.022 | idasanutlin -0.054 | [5] 0.462 | lapatinib 0.041 | [7] 0.135 | crizotinib -0.145 | [2] 0.071 | [3] 0.108 | [4] -0.029 | doramapimod 0.17

SNRPN isoform 2 (UniProt P63162)
inactive: [1] 0.198 | idasanutlin 0.332 | [5] -0.331 | lapatinib -0.137 | pictilisib -0.225 | crizotinib 0.174 | gandotinib 0.242 | doramapimod -0.023 | ispinesib 0.243

SOX7 isoform 2 (UniProt Q9BT81)
inactive: [1] -0.135 | zotarolimus -0.019 | idasanutlin 0.127 | alisertib -0.049 | [5] 0.039 | gefitinib 0.034 | [6] -0.144 | lapatinib 0.068 | pictilisib -0.048 | crizotinib -0.121 | [2] -0.116 | [3] 0.61 | duvelisib -0.271 | gandotinib 0.173 | tozasertib 0.087 | [4] 0.009 | doramapimod 0.285 | ispinesib -0.291

SMIM4 (UniProt Q8WVI0)
inactive: [1] -0.057 | zotarolimus 0.065 | idasanutlin -0.109 | alisertib -0.061 | [5] -0.018 | gefitinib -0.044 | [6] 0.08 | lapatinib 0.108 | crizotinib 0.063 | [2] -0.093 | [3] -0.056 | duvelisib -0.031 | tozasertib 0.07 | [4] -0.143 | doramapimod -0.055

SNX18 (UniProt Q96RF0)
inactive: [1] -0.193 | filanesib -0.272 | [7] 0.089 | crizotinib -0.142 | [2] -0.127 | doramapimod 0.032

SNRK (UniProt Q9NRH2)
active: [5] 0.84
inactive: [1] 0.15 | filanesib 0.158 | lapatinib 0.016 | [7] 0.008 | crizotinib -0.026 | [4] -0.067 | doramapimod 0.001

SNAP91 (UniProt O60641)
inactive: [1] 0.075 | filanesib -0.068 | zotarolimus -0.046 | idasanutlin -0.081 | alisertib -0.166 | gefitinib 0.013 | [6] 0.043 | pictilisib -0.07 | [7] 0.046 | crizotinib 0.005 | [2] -0.252 | [3] -0.018 | duvelisib 0.022 | gandotinib -0.052 | tozasertib -0.053 | [4] -0.128 | doramapimod -0.106 | ispinesib 0.018
